The values below come from patent publication US20160272706A1.

The chains behind the UniProt entries cited, without tags or fusion partners. Residues count along the entry.
UniProt P35225, residues 35-146: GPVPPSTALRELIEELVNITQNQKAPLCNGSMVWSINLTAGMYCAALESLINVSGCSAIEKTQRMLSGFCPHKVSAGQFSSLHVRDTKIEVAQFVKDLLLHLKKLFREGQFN

No constants are given. Whether binding was seen depends on the method and setting. Some results given as binding are weak or reduced against the parent protein; the word gives no strength.

The assay addresses Human IL-13 (human) (UniProt P35225). The assay is described as follows: biochemical receptor-ligand inhibition assay and biological TF-1 assay.

B1: 13NG0027 (antibody, V domains shown)
VH: QVQLVQSGAEVKKPGASVKVSCKASGYNVNQTGLSWVRQAPGQGLEWMGWINYDGGNTQYGQEFQGRVTMTTDTSTSTAYMELRSLRSDDTAVYYCARDSSSSWARWFFDLWGRGTLVTVSS
VL: SYVLTQPPSVSVAPGKTARIPCGGNIIGSKLVHWYQQKPGQAPVLIVFDDEDRPSGIPERFSGSNSGNTATLTISRVEAGDEADYYCQVWDTGSDPVVFGGGTKLTVL
On to B1, for which the binding result is on record as “binds”.
